Source: US4771037 (dated 1988)

Test: general procedure: solution-phase peptide synthesis
Details: late stage modification step

N-[1-(R)-Carboxy-3-methylbutyl]-L-leucyl-L-leucyl-L-leucyl-L-alaninamide
step yield: 96%
